Measurements reported in article PMC10373986.
No constants are given. Whether binding was seen depends on the method and setting. In cells and extracts the contact can be indirect. These calls come from enrichment with a bait or labelling near it, and not all partners need be listed.

The chains behind the UniProt entries cited, without tags or fusion partners. Residues count along the entry.
UniProt Q02487, residues 136-901: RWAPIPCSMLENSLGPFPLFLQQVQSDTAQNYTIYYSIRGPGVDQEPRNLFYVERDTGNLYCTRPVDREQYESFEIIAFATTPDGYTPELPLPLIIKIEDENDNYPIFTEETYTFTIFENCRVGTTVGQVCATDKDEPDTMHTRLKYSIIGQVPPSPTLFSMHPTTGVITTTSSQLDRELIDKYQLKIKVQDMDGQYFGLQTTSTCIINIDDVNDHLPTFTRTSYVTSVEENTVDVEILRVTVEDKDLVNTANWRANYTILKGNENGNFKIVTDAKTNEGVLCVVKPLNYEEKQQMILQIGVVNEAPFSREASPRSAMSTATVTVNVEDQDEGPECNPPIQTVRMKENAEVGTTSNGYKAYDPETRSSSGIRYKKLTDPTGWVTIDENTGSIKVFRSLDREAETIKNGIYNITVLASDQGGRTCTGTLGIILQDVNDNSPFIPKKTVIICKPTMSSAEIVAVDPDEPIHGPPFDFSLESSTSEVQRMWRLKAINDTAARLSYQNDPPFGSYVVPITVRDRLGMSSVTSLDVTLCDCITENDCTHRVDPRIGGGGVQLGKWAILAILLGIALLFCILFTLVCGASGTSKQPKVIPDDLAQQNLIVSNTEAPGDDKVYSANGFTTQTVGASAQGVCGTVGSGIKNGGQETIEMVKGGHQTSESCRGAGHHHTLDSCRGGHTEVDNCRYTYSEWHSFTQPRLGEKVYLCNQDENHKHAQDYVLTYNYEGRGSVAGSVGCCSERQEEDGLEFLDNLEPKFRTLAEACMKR

Molecular target: desmocollin2 (human) (UniProt Q02487)
Assay: affinity purification with mass spectrometry; protein of MGC-803 cells of the lenti-NC or Lenti-DSC2 group; antibodies on magnetic protein G beads, overnight at 4° C; eluate on SDS-PAGE, trypsin digest, nano LC-MS/MS, MASCOT search

B1: γ-catenin (protein, UniProt P14923 1-745)
chain: MEVMNLMEQPIKVTEWQQTYTYDSGIHSGANTCVPSVSSKGIMEEDEACGRQYTLKKTTTYTQGVPPSQGDLEYQMSTTARAKRVREAMCPGVSGEDSSLLLATQVEGQATNLQRLAEPSQLLKSAIVHLINYQDDAELATRALPELTKLLNDEDPVVVTKAAMIVNQLSKKEASRRALMGSPQLVAAVVRTMQNTSDLDTARCTTSILHNLSHHREGLLAIFKSGGIPALVRMLSSPVESVLFYAITTLHNLLLYQEGAKMAVRLADGLQKMVPLLNKNNPKFLAITTDCLQLLAYGNQESKLIILANGGPQALVQIMRNYSYEKLLWTTSRVLKVLSVCPSNKPAIVEAGGMQALGKHLTSNSPRLVQNCLWTLRNLSDVATKQEGLESVLKILVNQLSVDDVNVLTCATGTLSNLTCNNSKNKTLVTQNSGVEALIHAILRAGDKDDITEPAVCALRHLTSRHPEAEMAQNSVRLNYGIPAIVKLLNQPNQWPLVKATIGLIRNLALCPANHAPLQEAAVIPRLVQLLVKAHQDAQRHVAAGTQQPYTDGVRMEEIVEGCTGALHILARDPMNRMEIFRLNTIPLFVQLLYSSVENIQRVAAGVLCELAQDKEAADAIDAEGASAPLMELLHSRNEGTATYAAAVLFRISEDKNPDYRKRVSVELTNSLFKHDPAAWEAAQSMIPINEPYGDDMDATYRPMYSSDVPLDPLEMHMDMDGDYPIDTYSDGLRPPYPTADHMLA
- binding: binds
